# PubChem BioAssay AID504467 (National Center for Advancing Translational Sciences (NCATS), 2011)
# The campaign covered roughly 330,000 compounds. About 7,700 (2.3%) were called active. Inconclusive means that the source gave no clear call. Such entries were picked first, then a sample of the others. The call rests on the fitted dose curve; in most records, active means well fitted inhibition curve with a large enough effect; inconclusive means small, poorly fitted or top-dose-only effect, or effect the other way; inactive means flat fitted curve, though single readings scatter. Where the call is inconclusive, the potency comes from a doubtful curve fit.
# Experiment: qHTS screen for small molecules that inhibit ELG1-dependent DNA repair in human embryonic kidney (HEK293T) cells expressing luciferase-tagged ELG1; further: nearly all actives have a fitted effect of over 55% in size
# Conditions: HEK293T ELG1-luciferase reporter, luminescence, 16 h, DNA damage induced by 5-fluorouridine; activity change, negative = inhibition: at 46.1 µM (top of the series)
# Procedure, shortened: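 5-Fluorouridine DNA damage + compound/DMSO, 2,000 cells/well, 16 h, 37 °C/5% CO2. ONE-Glo, 30 min RT, luminescence. Readout = decrease in reporter signal.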
# On the % scale 0 is the no-effect control and ±100 the full control effect; potency means the concentration at half of the fitted maximal effect.
SMILES,Potency,"activity change, negative = inhibition"
CC(C)C(C)(C#N)NC(=O)CSc1nc2scc(-c3ccc(F)cc3)c2c(=O)n1Cc1ccccc1 (stereo not given),"inconclusive: 25.9 µM [inhibitor, partial curve]",
Cc1sc2ncnc(N3CCCCC3)c2c1C,"inconclusive: 0.259 µM [activator, full curve, poor fit]",
O=C(O)c1ccc2nc(-c3ccccc3)sc2c1,"inconclusive: 0.184 µM [activator, partial curve, poor fit]",
Cc1ccc(C(=O)NNC(=O)c2csc(N3CCOCC3)n2)o1,"inconclusive: 0.206 µM [inhibitor, single point]",
NS(=O)(=O)c1ccc(N2N=C(c3ccc(Br)cc3)CC2c2ccc(F)cc2)cc1 (stereo not given),"inconclusive: 25.9 µM [inhibitor, single point]",
COc1cccc(NC(=O)C(=O)N/N=C(\C)CC(=O)Nc2ccc(NC(C)=O)cc2)c1,"inconclusive: 20.6 µM [activator, single point]",
COc1cc2c(cc1NC(=O)c1cccnc1)oc1ccccc12,"inconclusive: 8.2 µM [activator, partial curve]",
Cc1cc(C)n(-c2nc(NCC3CCCO3)c3c4c(sc3n2)COC(C)(C)C4)n1 (stereo not given),active: 18.4 µM,
O=C(O)CCCCCCCCc1cn(Cc2ccc(C(=O)c3ccccc3)cc2)nn1,,inactive: -16.6%
COc1cccc(CN(c2ccc3c(c2)CCC3)S(=O)(=O)c2ccc(-n3cnnn3)c(OC)c2)c1,"inconclusive: 20.6 µM [inhibitor, partial curve, poor fit]",
Cc1cc(C(=O)CSc2nc3ccccc3c(=O)n2C)c(C)n1Cc1ccc2c(c1)OCO2,"inconclusive: 35.5 µM [inhibitor, single point]",
COc1ccc(CNC(=O)COC(=O)c2ccccc2OCC(=O)Nc2ccc(SC(F)F)cc2)cc1,,inactive: 1.67%
O=C(CNC(=O)c1[nH]cnc1C(=O)N[C@@H](Cc1ccccc1)C(=O)OCc1ccccc1)OCc1ccccc1,"inconclusive: 1.03 µM [activator, full curve]",
CC(C)n1c(O)c(N=NC(=O)Cc2csc(N3CCOCC3)n2)c2ccccc21,"inconclusive: 20.6 µM [inhibitor, single point]",
Cc1ccc(-n2nnc(-c3nccs3)n2)cc1,"inconclusive: 0.411 µM [activator, partial curve]",
CCc1c(C)sc(NC(=O)CCc2ccc(OC)cc2)c1C(N)=O,,inactive: -20%
Cc1ccc2c(c1)nnn2C1CCN(CC(=O)NCCc2ccccc2)CC1,"inconclusive: 6.51 µM [inhibitor, partial curve, poor fit]",
O=C(NN=Cc1ccc(N2CCOCC2)s1)c1ccc([N+](=O)[O-])cc1,active: 9.2 µM,
COc1ccc(NC(=S)Nc2ncccc2C)c(OC)c1,"inconclusive: 10.3 µM [activator, partial curve]",
CCCc1cc(C(=O)NCCc2ccccc2)no1,"inconclusive: 10.3 µM [activator, partial curve]",
CCCOc1ccc(-c2cn3ccccc3n2)cc1[N+](=O)[O-],"inconclusive: 5.8 µM [activator, partial curve]",
O=C(C1CCC1)N1CCN(c2ccc(Cl)cc2)CC1,,inactive: 3.11%
COc1cccc(N2C(=O)/C(=C\c3cccs3)NC2=S)c1,"inconclusive: 18.3 µM [activator, partial curve, poor fit]",
Cc1c(C)n(-c2ccccc2)c2ncnc(NCCN(C)C)c12,,inactive: -3.09%

SMILES,Potency,"activity change, negative = inhibition"
CC(=O)c1ccc(OCc2cc(C(=O)NCCc3ccc(Cl)cc3)no2)cc1,"inconclusive: 29.1 µM [activator, single point]",
O=C(COC(=O)CCC(=O)c1cccs1)Nc1cccc(F)c1,,inactive: 3.51%
Cc1ccc2[nH]c(=O)c(CN(CCCN3CCOCC3)C(=O)Nc3cccc(Cl)c3)cc2c1,"inconclusive: 29.1 µM [inhibitor, single point]",
COc1ccc(OCCn2cc(C=O)c3ccccc32)cc1,"inconclusive: 14.6 µM [inhibitor, partial curve]",
CCCCOc1ccc(C(=O)Nc2cccc(C)n2)cc1,"inconclusive: 3.26 µM [activator, partial curve, poor fit]",
CC1CC(C)(C)Nc2ccc(N=O)cc21 (stereo not given),"inconclusive: 29.1 µM [activator, single point]",
CCN(CC(=O)Nc1cc(Cl)ccc1C)C(=O)c1cc(S(=O)(=O)N2CCCCCC2)ccc1OC,"inconclusive: 18.3 µM [inhibitor, single point]",
O=C(NCCc1ccc(Cl)cc1)C1CCN(S(=O)(=O)c2ccc(-n3cnnn3)cc2)CC1,"inconclusive: 25.9 µM [inhibitor, single point]",
COc1ccccc1NC(=O)CSc1nnc(-c2ccc(C)cc2)o1,"inconclusive: 4.11 µM [activator, partial curve]",
O=C(c1ccc(F)cc1)C1CCN(CCn2c(=O)[nH]c3ccccc3c2=O)CC1,"inconclusive: 23.1 µM [inhibitor, single point]",
CC1(C)CN(c2ccc(N3CC(C)(C)C3=O)cc2)C1=O,"inconclusive: 20.6 µM [activator, partial curve]",
Cc1cccc(N2CC(c3nc4ccccc4[nH]3)CC2=O)c1 (stereo not given),,inactive: 7.82%
Cc1ccc(S(=O)(=O)NNC(=O)c2cnn(-c3ccc(Cl)cc3)c2C(F)(F)F)cc1,"inconclusive: 20.6 µM [inhibitor, partial curve]",
COCCC(=O)N1CCC(Oc2ccc(C(=O)N3CCCCC3CCO)cc2)CC1 (stereo not given),"inconclusive: 7.3 µM [inhibitor, partial curve]",
C[C@H](CO)N1C[C@H](C)[C@@H](CN(C)C(=O)Nc2ccc3c(c2)OCO3)Oc2ccc(NC(=O)CCC(F)(F)F)cc2C1=O,,inactive: 13.3%
CCn1c(SCC(=O)N2CCCC2)nc2ccccc2c1=O,,inactive: 0.33%
O=C(NC(=S)Nc1ccccc1)c1csnn1,"inconclusive: 7.31 µM [activator, partial curve]",
COc1ccc(NC(=O)CN(C)C(=O)c2ccc(COc3ccccc3)o2)cc1,,inactive: 14.6%
COc1ccc(Cl)cc1C(=O)Nc1nc2ccccc2[nH]1,"inconclusive: 0.116 µM [activator, full curve, poor fit]",
FC(F)(F)C(Oc1nc(NC2CCCCC2)nc(N2CCOCC2)n1)C(F)(F)F,"inconclusive: 18.4 µM [inhibitor, single point]",
O=C(NCC1CCCO1)C1CCN(S(=O)(=O)c2cc(Cl)ccc2Cl)CC1 (stereo not given),,inactive: -27.4%
Cc1ccc(NC(=O)CN2C(=O)N/C(=C/c3ccc(C)s3)C2=O)cc1,"inconclusive: 18.4 µM [activator, single point]",
Cc1c(C(=O)N2CCOCC2)sc(NC(=O)Cc2ccccc2)c1C#N,,inactive: -13.8%
COc1ccc(C)c2sc(NC(=O)CCS(=O)(=O)c3ccccc3)nc12,"inconclusive: 20.6 µM [inhibitor, single point]",

SMILES,Potency,"activity change, negative = inhibition"
C[C@@H]1CN([C@@H](C)CO)C(=O)c2cccc(NC(=O)C3CCCCC3)c2O[C@@H]1CN(C)C(=O)NC1CCCCC1,"inconclusive: 18.3 µM [activator, partial curve, poor fit]",
Cc1cc(C)n2nc(C(=O)NNC(=O)c3ccccc3)nc2n1,,inactive: 7.99%
CCCCN(C(=O)C1CCCC1)C1CCS(=O)(=O)C1 (stereo not given),,inactive: 12.7%
O=C(NC(=S)Nc1cccc(NC(=O)c2ccccc2)c1)c1cccc([N+](=O)[O-])c1,,inactive: -20%
COCCCNC(=O)CCc1c(C)nc2c(c(C)nn2-c2ccc(C)cc2)c1C,,inactive: 16.9%
Cc1cccc(NC(=O)c2cc(NC(=O)CCCC(=O)O)ccc2Cl)n1,,inactive: 12.2%
Cc1ccccc1CN1C(=O)c2ccccc2Sc2ccc(C(=O)NCCN3CCOCC3)cc21,,inactive: -1.14%
Cn1ccnc1SCC(=O)Nc1cccc(O)c1,"inconclusive: 16.4 µM [activator, single point]",
Cc1ccc(NS(=O)(=O)c2ccc(NC(=O)C3CC3)cc2)c(C)c1,,inactive: -1.49%
CC1CCCC(C)N1C(=O)CSc1nnnn1C1CCCC1 (stereo not given),"inconclusive: 14.6 µM [activator, partial curve]",
CC/C(=C\c1oc2cc3ccccc3cc2[n+]1CC)Nc1ccccc1,,inactive: -9.68%
Cc1ccc(C2(C)NC(=O)N(CC(=O)NNC(=O)c3ccccc3F)C2=O)cc1 (stereo not given),,inactive: 3.05%
CC(c1nnc(SCC(=O)c2c(N)n(C3CC3)c(=O)[nH]c2=O)n1-c1ccc(F)cc1)N(C)C (stereo not given),,inactive: -2.56%
COc1ccc2c(c1)CCc1c(C(=O)N3CC4(C)CC3CC(C)(C)C4)noc1-2 (stereo not given),"inconclusive: 18.4 µM [inhibitor, partial curve, poor fit]",
Cc1[nH]c2ccccc2c1C(=O)CSc1nccc(=O)[nH]1,,inactive: 9.1%
CCCCn1nc(C(=O)NC2=NCCS2)c2ccccc2c1=O,"inconclusive: 23.1 µM [inhibitor, single point]",
O=C(N/N=C/c1ccc(F)cc1)c1ccc(Br)cc1,"inconclusive: 20.6 µM [activator, single point]",
O=C(NC1CCSC1=O)c1cccc(C(=O)NC2CCSC2=O)c1 (stereo not given),,inactive: 0.526%
CCOC(=O)c1sc(NC(=O)/C=C/c2cnn(C)c2C)c(C(=O)OC(C)C)c1C,,inactive: -2.05%
CN(C)c1ccc(P(=O)(Nc2cccc(C(F)(F)F)c2)N2CCOCC2)c(NC(=O)c2cccs2)c1 (stereo not given),"inconclusive: 29.1 µM [inhibitor, single point]",
CCC(=O)c1ccc(N2CCCC2)c(F)c1,"inconclusive: 16.4 µM [activator, partial curve]",
COc1cccc(/C=C/C(=O)OCC(=O)Nc2nnc(-c3ccccc3)o2)c1,,inactive: -3.35%

# Five successive entries out of the list so far:
SMILES,Potency,"activity change, negative = inhibition"
COCCCNC(=O)CCc1c(C)nc2c(c(C)nn2-c2ccc(C)cc2)c1C,,inactive: 16.9%
Cc1cccc(NC(=O)c2cc(NC(=O)CCCC(=O)O)ccc2Cl)n1,,inactive: 12.2%
Cc1ccccc1CN1C(=O)c2ccccc2Sc2ccc(C(=O)NCCN3CCOCC3)cc21,,inactive: -1.14%
Cn1ccnc1SCC(=O)Nc1cccc(O)c1,"inconclusive: 16.4 µM [activator, single point]",
Cc1ccc(NS(=O)(=O)c2ccc(NC(=O)C3CC3)cc2)c(C)c1,,inactive: -1.49%
